# Assay results taken from PubChem BioAssay AID504648 (National Center for Advancing Translational Sciences (NCATS), 2011).
# The campaign covered roughly 390,000 compounds. About 610 (0.16%) were called active. Inconclusive means that the source gave no clear call. Such entries were picked first, then a sample of the others. Calls come from the whole dose curve; as a rule, active = well fitted inhibition curve with a large enough effect; inconclusive = small, poorly fitted or top-dose-only effect, or effect the other way, or another doubt; inactive = no such curve, though single readings can be large or run the other way. A potency beside an inconclusive call is a rough fit, not a confirmed value.
# Test: Nrf2 qHTS screen for inhibitors: counterscreen for cytotoxicity
# Details: A549 ARE-Fluc cells, CellTiter-Fluor viability, 18-24 h; activity change, negative = cytotoxicity: at 46 µM (top of the series)
# Summary of the method: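 Cytotoxicity counterscreen: CellTiter-Fluor fluorescence was measured in A549 ARE_Fluc cells after 18-24 h of compound exposure in a concentration series. The subsequent BugLite luminescent read reports ARE-luciferase activity.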
# % is set by controls: 0 for no effect and ±100 for the full control effect; potency is the fitted concentration of half-maximal effect.
SMILES,Potency,"activity change, negative = cytotoxicity"
c1ccc(-c2nc(NC3CCCC3)c3ccccc3n2)cc1,"inconclusive: 25.9 µM [falling, single point]",–
C1=CC2=NC34CCCCC3CC3=C(CCCC3)N4C2=CC1=NC1CCCCC1 (centres undefined),"inconclusive: 20.6 µM [falling, partial curve, poor fit]",–
FC(F)Sc1ccc(NC(=S)NCC2CCCCC2)cc1,"inconclusive: 25.9 µM [falling, single point]",–
COc1ccc(-c2nc3ccccn3c2NC2CCCCC2)cc1SC1CCCCC1,"inconclusive: 20.6 µM [falling, single point]",–
CCCCNS(=O)(=O)c1ccc2nc(SCC(=O)Nc3cc(C)cc(C)c3)[nH]c2c1,"inconclusive: 20.6 µM [falling, single point]",–
CCOC(=O)c1sc(-c2ccc(OC)cc2)cc1NC(C)=O,"inconclusive: 20.6 µM [activator, partial curve, poor fit]",–
COc1ccc(Nc2nc(N3CCCCC3)nc3ccccc23)c(OC)c1,"inconclusive: 18.4 µM [falling, partial curve, poor fit]",–
C=CCN1C(=O)S/C(=C/c2ccsc2)C1=O,–,inactive: -7.68%
C=CCOc1ccc2c(CC)cc(=O)oc2c1C,–,inactive: 1.23%
Nc1nn2c(-c3ccccc3)cc(=O)[nH]c2c1N=Nc1ccc(O)cc1,"inconclusive: 9.2 µM [falling, partial curve]",–
COc1cccc2[nH]c3c(N4CCc5ccccc5C4)ncnc3c12,"inconclusive: 29.1 µM [falling, single point]",–
CCOC(=O)[C@H]1O[C@@H]1C(=O)N[C@@H](CC(C)C)C(=O)NCCC(C)C,active: 20.6 µM,–
CCSc1nnc(NC(=O)C(C)(C(F)(F)F)C(F)(F)F)s1,"inconclusive: 25.9 µM [falling, partial curve, poor fit]",–
CCc1ccc(NC(=O)CSC2=Nc3ccccc3C3=NC(CCC(=O)NCc4cccs4)C(=O)N23)cc1 (centres undefined),–,inactive: -8.25%
O=C(Nc1cccc2c1C(=O)NC2=O)c1ccc(S(=O)(=O)N2CCCC2)cc1,"inconclusive: 23.1 µM [activator, single point]",–
CN(C(=O)COc1ccccc1C(=O)NCCOc1ccccc1)c1ccccc1,"inconclusive: 18.4 µM [falling, single point]",–
CCOC(=O)Cc1csc(NC(=O)COC(=O)/C=C/c2ccc(OC)cc2)n1,"inconclusive: 18.4 µM [falling, single point]",–
CCc1ccccc1NC(=O)CC(c1ccc(F)cc1)N1Cc2ccccc2C1=O (centres undefined),"inconclusive: 20.6 µM [falling, partial curve, poor fit]",–
Cc1cccc(-c2cc3c(nn2)-c2ccccc2C3=O)c1,"inconclusive: 29.1 µM [falling, partial curve, poor fit]",–
C/C(=N\Nc1cc(N2CCCCC2)nc(C)n1)c1ccc(Br)cc1,–,inactive: -22.1%
Cc1cccc(N2C(=O)CC(SC(=Nc3ccccc3)Nc3ccccc3)C2=O)c1 (centres undefined),"inconclusive: 29.1 µM [falling, single point]",–
Cc1onc(-c2ccccc2)c1C(=O)c1c[nH]c(C(=O)NCc2ccncc2)c1,–,inactive: 10.1%

SMILES,Potency,"activity change, negative = cytotoxicity"
Cc1cccc(-n2c(N)c(-c3nc4ccccc4n3C)c3nc4ccccc4nc32)c1,"inconclusive: 3.26 µM [activator, full curve, poor fit]",–
Cc1ccc(NC(=O)c2cc(-c3ccc4c(c3)OCO4)on2)cc1,inactive,–
Cc1cc(C(=O)N/N=C/c2c(C)nn(-c3ccccc3)c2C)n[nH]1,–,inactive: 0.526%
COc1ccc(/C=C2\CCC/C(=C\c3ccc(OC)c(OC)c3OC)C2=O)c(OC)c1OC,"inconclusive: 13 µM [falling, partial curve, poor fit]",–
COC(=O)CSc1nc2ccc(NC(=O)CSc3nnnn3Cc3ccccc3)cc2s1,"inconclusive: 4.11 µM [falling, single point]",–
O=C(COc1ccc([N+](=O)[O-])cc1)N(Cc1ccccc1)Cc1ccccc1,–,inactive: 13.6%
O=C(Nc1sc2c(c1C(=O)NC1CCCCC1)CCC2)c1ccco1,–,inactive: 7.48%
O=C(CCC1CCCCC1)N1CCN(Cc2ccc3c(c2)OCO3)CC1,"inconclusive: 18.4 µM [activator, single point]",–
CCN(CC)C(=O)CSc1nnc2nnc3cc(OC)ccc3n12,"inconclusive: 29.1 µM [falling, single point]",–
Cc1cccc(NC(=O)Cn2c(=O)n(CCc3ccccc3)c(=O)c3sc4ccccc4c32)c1,–,inactive: -7.44%
COc1cccc(/C=C/C(=O)c2ccc3c(c2)OCCO3)c1OC,"inconclusive: 16.4 µM [falling, partial curve, poor fit]",–
COC(=O)c1sc(-c2cccs2)cc1N,–,inactive: -1.94%
O=C(CCCc1ccccc1)N1CCN(c2ccc([N+](=O)[O-])cc2)CC1,"inconclusive: 32.6 µM [falling, partial curve, poor fit]",–
Cc1ccc2c(c1)c1c3n2CCN(C(=O)CN2CCN(C)CC2)C3CCC1 (centres undefined),"inconclusive: 4.61 µM [activator, partial curve]",–
CCN(CC)S(=O)(=O)c1ccc2c(c1)N(CC(=O)Nc1ccc(F)cc1)C(=O)CO2,–,inactive: -14.7%
O=C(Nc1ccc(-c2nc3ccccc3o2)cc1)c1ccc(N2CCOCC2)c([N+](=O)[O-])c1,"inconclusive: 18.4 µM [falling, single point]",–
COc1ccc(C(CNC(=O)COc2c(C)cc(C)cc2C)N2CCOCC2)cc1 (centres undefined),"inconclusive: 13 µM [activator, partial curve, poor fit]",–
Cc1ccc(CNCC(O)(c2ccccc2)c2ccc(F)cc2)cc1 (centres undefined),–,inactive: 12.4%
CCn1c(COc2c(C)cccc2C)nnc1SCC(=O)N1CCN(c2ccccc2)CC1,"inconclusive: 13 µM [falling, partial curve, poor fit]",–
COc1ccc(NC(=O)N(Cc2nnc3n2CCCCC3)c2ccc(OC)c(Cl)c2)cc1,–,inactive: -4.77%
Cn1cnc(S(=O)(=O)N2CCCC(C(=O)Nc3cccc(C#N)c3)C2)c1 (centres undefined),–,inactive: 0.541%
CC(=O)c1cccc(NC(=O)C2CCCN(S(=O)(=O)c3ccccc3)C2)c1 (centres undefined),"inconclusive: 6.51 µM [falling, single point]",–

# Sorted by count of non-hydrogen atoms (descending): part of the list above.
SMILES,Potency,"activity change, negative = cytotoxicity"
COc1ccc(/C=C2\CCC/C(=C\c3ccc(OC)c(OC)c3OC)C2=O)c(OC)c1OC,"inconclusive: 13 µM [falling, partial curve, poor fit]",–
Cc1cccc(-n2c(N)c(-c3nc4ccccc4n3C)c3nc4ccccc4nc32)c1,"inconclusive: 3.26 µM [activator, full curve, poor fit]",–
O=C(CCC1CCCCC1)N1CCN(Cc2ccc3c(c2)OCO3)CC1,"inconclusive: 18.4 µM [activator, single point]",–
